# Source: PubChem BioAssay AID1508597 (Cure First, 2020)
# Assay: 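Survival screen with siRNA in ovarian cancer cells derived from patients, with or without rucaparib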 (primary screen)
# Cells: human ovarian carcinoma lines grown from tumours: OCI-P5x (papillary serous) and OCI-C5x (clear cell)
# Reagents: siRNA pool against human genes, 1.25 pmol siRNA per well
# Time to read-out: 72 h or 96 h, depending on the cell culture
# Conditions: rucaparib 20 µM (about IC30) or vehicle, present until read-out
# Rucaparib or vehicle: Rucaparib
# Cell line: OCI-P5x (serous)
# Measurement: 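Luminescent ATP-based viability assay read 72 or 96 h after transfection, depending on culture, given as normalised percent viability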
# Scale: viability, normalised: higher = more viable cells remaining
# Rule for the call: 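a well counts as a hit if its normalised viability is under 80 percent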
# Meaning of the calls: active = viability under 80%; inactive = viability 80% or more
# Shown is a random part of the about 2,100 reagents, under one of the conditions tested. 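Calls flag viability under 80% in either arm, not effects specific to rucaparib; the reference for percent is not stated.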 Not given: the 100% reference.
Target gene,technical replicate,"viability, normalised (%)",activity call
NTPCR (GeneID 84284),1,80,active
NTPCR (GeneID 84284),2,85.4,inactive
NTPCR (GeneID 84284),3,68.9,active
FTO (GeneID 79068),1,54.3,active
FTO (GeneID 79068),2,42,active
FTO (GeneID 79068),3,87,inactive
CLDN15 (GeneID 24146),1,83.1,inactive
CLDN15 (GeneID 24146),2,77.4,active
CLDN15 (GeneID 24146),3,94,inactive
MCM2 (GeneID 4171),1,59.4,active
MCM2 (GeneID 4171),2,44.4,active
MCM2 (GeneID 4171),3,47.2,active
PSMC2 (GeneID 5701),1,31.9,active
PSMC2 (GeneID 5701),2,38.3,active
PSMC2 (GeneID 5701),3,41.7,active
ERBB4 (GeneID 2066),1,60.4,active
ERBB4 (GeneID 2066),2,68.1,active
ERBB4 (GeneID 2066),3,64.4,active
TFAP2A (GeneID 7020),1,69.2,active
TFAP2A (GeneID 7020),2,73.2,active
TFAP2A (GeneID 7020),3,92.8,inactive
TAF9 (GeneID 6880),1,67.7,active
TAF9 (GeneID 6880),2,91.9,inactive
TAF9 (GeneID 6880),3,58.3,active
CLDN16 (GeneID 10686),1,52,active
CLDN16 (GeneID 10686),2,42.7,active
CLDN16 (GeneID 10686),3,52.9,active
INSR (GeneID 3643),1,105,inactive
INSR (GeneID 3643),2,102,inactive
INSR (GeneID 3643),3,107,inactive
MAP3K9 (GeneID 4293),1,70.7,active
MAP3K9 (GeneID 4293),2,71.5,active
MAP3K9 (GeneID 4293),3,75.7,active
ZSCAN21 (GeneID 7589),1,96.9,inactive
ZSCAN21 (GeneID 7589),2,91.3,inactive
ZSCAN21 (GeneID 7589),3,93.9,inactive
WHR1 (GeneID 8859),1,107,inactive
WHR1 (GeneID 8859),2,53.9,active
WHR1 (GeneID 8859),3,86.3,inactive
DGKI (GeneID 9162),1,84.2,inactive
DGKI (GeneID 9162),2,64,active
DGKI (GeneID 9162),3,59.6,active
AKT1 (GeneID 207),1,80.6,inactive
AKT1 (GeneID 207),2,88.1,inactive
AKT1 (GeneID 207),3,79.3,active
WIZ (GeneID 58525),1,69.1,active
WIZ (GeneID 58525),2,55.6,active
WIZ (GeneID 58525),3,62.6,active
CHD5 (GeneID 26038),1,50.2,active
CHD5 (GeneID 26038),2,88.5,inactive
CHD5 (GeneID 26038),3,45.1,active
POLE3 (GeneID 54107),1,52,active
POLE3 (GeneID 54107),2,47.5,active
POLE3 (GeneID 54107),3,46,active
FGFR3 (GeneID 2261),1,56.2,active
FGFR3 (GeneID 2261),2,73.9,active
FGFR3 (GeneID 2261),3,66.8,active

Reprinted from the listing for reference:
Target gene,technical replicate,"viability, normalised (%)",activity call
TAF9 (GeneID 6880),3,58.3,active
CLDN16 (GeneID 10686),1,52,active
CLDN16 (GeneID 10686),2,42.7,active
CLDN16 (GeneID 10686),3,52.9,active
INSR (GeneID 3643),1,105,inactive
